Measured values: the supplement of paper PMC10849652
The other results are listed elsewhere or left out.

Sequences of proteins named here, by UniProt entry; tags and fusion partners are left off. A change or cut given only in a name is not applied to a line headed by its entry.
UniProt O15397, whole entry, looked up: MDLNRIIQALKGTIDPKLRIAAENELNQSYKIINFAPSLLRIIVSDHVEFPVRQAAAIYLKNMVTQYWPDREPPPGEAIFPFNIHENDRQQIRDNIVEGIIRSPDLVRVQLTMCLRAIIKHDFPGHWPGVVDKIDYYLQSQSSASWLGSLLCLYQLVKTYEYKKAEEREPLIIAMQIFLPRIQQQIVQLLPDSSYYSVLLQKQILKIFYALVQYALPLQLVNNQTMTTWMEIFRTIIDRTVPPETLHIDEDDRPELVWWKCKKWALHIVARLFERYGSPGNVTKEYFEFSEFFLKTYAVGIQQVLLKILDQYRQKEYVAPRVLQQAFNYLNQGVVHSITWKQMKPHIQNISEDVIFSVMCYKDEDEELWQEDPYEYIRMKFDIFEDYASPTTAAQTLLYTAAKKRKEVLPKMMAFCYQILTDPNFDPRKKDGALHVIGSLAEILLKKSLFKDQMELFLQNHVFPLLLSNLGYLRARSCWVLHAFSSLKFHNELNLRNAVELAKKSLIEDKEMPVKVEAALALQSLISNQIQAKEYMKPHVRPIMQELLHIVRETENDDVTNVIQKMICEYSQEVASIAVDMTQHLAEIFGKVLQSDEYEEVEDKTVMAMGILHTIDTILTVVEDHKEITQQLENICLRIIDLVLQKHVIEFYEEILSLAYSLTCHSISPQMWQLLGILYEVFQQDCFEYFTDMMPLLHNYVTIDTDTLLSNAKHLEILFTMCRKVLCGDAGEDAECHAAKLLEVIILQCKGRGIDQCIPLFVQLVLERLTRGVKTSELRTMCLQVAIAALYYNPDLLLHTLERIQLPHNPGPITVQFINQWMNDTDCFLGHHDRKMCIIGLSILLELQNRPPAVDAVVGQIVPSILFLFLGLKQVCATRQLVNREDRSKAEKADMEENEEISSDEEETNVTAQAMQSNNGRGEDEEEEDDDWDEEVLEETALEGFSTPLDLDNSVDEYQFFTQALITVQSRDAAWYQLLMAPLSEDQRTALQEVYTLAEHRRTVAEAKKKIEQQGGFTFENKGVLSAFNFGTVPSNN
UniProt Q13352: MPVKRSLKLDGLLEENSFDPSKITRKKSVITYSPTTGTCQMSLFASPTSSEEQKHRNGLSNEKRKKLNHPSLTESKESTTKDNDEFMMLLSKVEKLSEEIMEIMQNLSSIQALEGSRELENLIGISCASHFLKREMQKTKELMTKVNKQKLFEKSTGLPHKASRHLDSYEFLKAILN
UniProt P50213: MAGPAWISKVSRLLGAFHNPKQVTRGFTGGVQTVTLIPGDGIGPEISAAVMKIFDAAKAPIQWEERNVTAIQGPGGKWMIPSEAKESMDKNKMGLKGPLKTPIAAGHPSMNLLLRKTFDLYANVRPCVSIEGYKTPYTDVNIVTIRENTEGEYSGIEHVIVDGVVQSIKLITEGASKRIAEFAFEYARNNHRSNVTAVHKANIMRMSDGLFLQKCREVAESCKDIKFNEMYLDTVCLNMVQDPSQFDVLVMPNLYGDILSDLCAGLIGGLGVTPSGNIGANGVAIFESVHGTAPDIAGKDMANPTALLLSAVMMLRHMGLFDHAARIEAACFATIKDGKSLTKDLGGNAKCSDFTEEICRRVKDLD
UniProt Q9BW83: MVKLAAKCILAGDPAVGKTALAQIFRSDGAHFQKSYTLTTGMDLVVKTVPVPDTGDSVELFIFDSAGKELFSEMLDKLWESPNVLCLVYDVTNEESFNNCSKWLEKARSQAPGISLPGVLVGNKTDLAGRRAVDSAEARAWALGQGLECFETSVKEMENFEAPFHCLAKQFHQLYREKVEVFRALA
UniProt P24592: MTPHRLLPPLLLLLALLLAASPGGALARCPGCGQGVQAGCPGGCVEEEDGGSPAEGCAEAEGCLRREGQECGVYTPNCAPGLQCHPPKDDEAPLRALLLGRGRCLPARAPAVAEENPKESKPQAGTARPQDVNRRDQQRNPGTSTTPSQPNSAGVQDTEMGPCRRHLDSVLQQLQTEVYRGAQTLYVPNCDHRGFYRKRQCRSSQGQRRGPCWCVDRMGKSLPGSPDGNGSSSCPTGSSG
UniProt Q8WYH8, whole entry, looked up: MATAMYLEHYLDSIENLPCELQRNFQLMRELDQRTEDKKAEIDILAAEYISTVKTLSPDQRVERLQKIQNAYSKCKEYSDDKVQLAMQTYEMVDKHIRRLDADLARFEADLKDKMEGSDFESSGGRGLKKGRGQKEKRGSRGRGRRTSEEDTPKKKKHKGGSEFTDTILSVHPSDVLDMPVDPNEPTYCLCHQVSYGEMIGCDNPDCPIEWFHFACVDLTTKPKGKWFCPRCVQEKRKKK
UniProt P28290: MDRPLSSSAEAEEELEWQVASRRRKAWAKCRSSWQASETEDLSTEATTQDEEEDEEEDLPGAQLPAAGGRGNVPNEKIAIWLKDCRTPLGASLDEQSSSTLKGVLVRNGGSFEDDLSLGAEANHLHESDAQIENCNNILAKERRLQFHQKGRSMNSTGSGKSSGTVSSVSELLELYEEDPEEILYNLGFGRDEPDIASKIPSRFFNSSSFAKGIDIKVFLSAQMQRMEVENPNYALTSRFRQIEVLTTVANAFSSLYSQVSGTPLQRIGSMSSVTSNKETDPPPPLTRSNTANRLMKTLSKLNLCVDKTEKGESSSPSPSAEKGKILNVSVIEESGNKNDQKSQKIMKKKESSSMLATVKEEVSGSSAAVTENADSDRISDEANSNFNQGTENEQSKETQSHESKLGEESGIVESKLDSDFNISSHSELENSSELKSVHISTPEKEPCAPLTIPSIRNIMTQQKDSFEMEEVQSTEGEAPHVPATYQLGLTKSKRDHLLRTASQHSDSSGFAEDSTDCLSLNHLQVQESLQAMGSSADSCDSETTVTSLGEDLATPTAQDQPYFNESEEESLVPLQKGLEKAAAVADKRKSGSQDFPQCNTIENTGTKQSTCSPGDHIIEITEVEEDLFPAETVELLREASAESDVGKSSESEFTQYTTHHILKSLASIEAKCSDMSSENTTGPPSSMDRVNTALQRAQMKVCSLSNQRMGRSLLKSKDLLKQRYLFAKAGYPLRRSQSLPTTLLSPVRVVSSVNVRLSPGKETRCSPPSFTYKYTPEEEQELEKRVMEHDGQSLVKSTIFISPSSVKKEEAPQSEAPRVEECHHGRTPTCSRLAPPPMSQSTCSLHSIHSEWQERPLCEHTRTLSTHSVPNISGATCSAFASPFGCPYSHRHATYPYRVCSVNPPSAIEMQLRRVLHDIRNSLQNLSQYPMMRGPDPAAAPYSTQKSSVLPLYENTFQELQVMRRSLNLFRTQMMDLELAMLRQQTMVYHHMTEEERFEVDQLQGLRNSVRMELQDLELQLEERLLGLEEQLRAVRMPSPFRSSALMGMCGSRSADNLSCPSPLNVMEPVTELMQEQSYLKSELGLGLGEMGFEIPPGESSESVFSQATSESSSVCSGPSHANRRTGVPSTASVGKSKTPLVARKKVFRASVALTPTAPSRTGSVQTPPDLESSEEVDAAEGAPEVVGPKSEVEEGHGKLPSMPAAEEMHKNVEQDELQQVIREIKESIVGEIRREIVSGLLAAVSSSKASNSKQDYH
UniProt P19827: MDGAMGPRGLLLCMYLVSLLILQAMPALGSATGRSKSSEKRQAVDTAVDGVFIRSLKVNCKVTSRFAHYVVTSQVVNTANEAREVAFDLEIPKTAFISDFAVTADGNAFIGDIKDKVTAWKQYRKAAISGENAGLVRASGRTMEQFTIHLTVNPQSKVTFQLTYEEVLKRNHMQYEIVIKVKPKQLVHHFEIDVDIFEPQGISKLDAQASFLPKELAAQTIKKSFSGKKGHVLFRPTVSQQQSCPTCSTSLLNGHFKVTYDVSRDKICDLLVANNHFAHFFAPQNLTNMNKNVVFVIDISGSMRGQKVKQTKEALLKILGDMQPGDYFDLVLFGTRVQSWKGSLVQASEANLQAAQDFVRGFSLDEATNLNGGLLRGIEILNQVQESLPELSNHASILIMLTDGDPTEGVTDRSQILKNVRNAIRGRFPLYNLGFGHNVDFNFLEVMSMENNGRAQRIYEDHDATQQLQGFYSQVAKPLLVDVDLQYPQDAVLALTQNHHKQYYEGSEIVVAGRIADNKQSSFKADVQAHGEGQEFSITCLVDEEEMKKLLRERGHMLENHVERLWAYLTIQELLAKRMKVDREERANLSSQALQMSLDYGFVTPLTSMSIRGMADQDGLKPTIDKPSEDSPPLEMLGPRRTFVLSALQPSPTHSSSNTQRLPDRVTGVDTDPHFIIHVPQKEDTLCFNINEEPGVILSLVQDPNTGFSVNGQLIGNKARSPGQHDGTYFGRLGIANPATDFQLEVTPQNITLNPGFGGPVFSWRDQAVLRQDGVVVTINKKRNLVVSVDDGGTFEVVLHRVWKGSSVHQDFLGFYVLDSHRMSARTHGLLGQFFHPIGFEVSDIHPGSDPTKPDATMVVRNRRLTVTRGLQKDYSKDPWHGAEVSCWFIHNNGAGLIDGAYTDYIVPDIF
UniProt Q96CB8, whole entry, looked up: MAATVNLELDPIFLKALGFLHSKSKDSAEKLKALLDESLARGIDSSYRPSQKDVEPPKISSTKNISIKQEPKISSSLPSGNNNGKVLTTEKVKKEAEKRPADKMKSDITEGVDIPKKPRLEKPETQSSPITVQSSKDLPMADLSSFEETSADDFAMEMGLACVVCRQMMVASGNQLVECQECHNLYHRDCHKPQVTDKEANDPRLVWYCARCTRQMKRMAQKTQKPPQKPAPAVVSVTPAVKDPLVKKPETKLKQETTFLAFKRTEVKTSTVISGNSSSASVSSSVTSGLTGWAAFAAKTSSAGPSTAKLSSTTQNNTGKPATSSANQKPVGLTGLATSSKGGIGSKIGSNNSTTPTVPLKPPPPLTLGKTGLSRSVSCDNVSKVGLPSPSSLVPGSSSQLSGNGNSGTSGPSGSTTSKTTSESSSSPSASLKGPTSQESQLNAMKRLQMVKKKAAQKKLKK
UniProt Q8NFU5: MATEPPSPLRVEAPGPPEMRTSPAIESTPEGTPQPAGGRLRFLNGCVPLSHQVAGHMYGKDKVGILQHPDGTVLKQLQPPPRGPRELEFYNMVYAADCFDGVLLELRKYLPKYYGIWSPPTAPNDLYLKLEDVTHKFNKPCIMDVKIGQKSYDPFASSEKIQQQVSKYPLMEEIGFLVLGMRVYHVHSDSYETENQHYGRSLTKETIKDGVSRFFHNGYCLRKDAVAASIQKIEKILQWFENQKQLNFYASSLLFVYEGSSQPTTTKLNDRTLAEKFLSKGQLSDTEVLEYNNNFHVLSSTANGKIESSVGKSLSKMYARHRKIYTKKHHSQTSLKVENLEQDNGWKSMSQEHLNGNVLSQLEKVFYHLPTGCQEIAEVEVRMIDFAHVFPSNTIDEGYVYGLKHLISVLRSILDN
UniProt O14713: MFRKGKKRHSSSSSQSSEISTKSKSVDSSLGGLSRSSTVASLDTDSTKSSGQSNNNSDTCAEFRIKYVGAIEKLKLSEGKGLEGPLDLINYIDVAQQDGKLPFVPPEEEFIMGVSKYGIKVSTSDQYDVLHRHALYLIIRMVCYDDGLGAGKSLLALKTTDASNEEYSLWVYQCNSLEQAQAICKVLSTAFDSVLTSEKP
UniProt Q9NQS7, whole entry, looked up: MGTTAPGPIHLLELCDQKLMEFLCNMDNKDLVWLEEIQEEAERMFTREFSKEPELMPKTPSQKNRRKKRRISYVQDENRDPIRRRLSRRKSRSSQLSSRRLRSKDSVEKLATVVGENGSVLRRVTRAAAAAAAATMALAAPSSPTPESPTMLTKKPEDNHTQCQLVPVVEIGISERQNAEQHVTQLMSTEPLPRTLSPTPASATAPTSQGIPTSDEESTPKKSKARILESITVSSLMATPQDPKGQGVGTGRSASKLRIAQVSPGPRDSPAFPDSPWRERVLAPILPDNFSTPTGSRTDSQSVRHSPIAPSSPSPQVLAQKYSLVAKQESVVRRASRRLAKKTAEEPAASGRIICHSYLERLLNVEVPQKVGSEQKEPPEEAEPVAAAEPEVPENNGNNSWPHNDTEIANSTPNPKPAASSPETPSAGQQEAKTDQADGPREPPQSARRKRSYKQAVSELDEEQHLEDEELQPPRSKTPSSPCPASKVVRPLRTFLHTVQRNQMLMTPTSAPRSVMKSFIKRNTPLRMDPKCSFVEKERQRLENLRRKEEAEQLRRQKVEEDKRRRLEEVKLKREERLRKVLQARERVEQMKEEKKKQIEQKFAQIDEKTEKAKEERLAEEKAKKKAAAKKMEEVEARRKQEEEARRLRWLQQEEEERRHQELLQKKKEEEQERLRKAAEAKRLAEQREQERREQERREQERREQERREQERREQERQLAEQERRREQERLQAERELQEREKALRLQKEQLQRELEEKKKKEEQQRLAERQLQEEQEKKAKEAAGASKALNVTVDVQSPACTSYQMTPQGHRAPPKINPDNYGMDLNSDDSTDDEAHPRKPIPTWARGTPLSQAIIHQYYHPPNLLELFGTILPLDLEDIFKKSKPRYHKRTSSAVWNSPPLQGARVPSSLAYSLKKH
UniProt P01344, whole entry, looked up: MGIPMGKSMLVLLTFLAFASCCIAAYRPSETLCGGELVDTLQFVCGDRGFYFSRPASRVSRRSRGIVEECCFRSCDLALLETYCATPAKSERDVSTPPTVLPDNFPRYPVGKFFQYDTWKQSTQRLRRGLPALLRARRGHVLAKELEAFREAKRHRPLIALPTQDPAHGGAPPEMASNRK

Legend:
Experiment in all cases: log2 fold change, soluble protein after heating vs DMSO (PISA); higher = thermal stabilisation; K562 cells, 10 uM, 30 min; active = over 0.2 and 3.5 SD of the protein, either way, in both replicates (recomputed)
[1] = compound: CC1=C(C=C(C=C1)NC(=O)C2=CC(=CC=C2)C(C)(C)C#N)NC3=CC4=C(C=C3)N=CN(C4=O)C
How it was run: (§1)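 Aliquots of K562 cells (2×10^6 cells/mL) treated with 10 μM compound for 30 min were heated for 3 min over 48°C-58°C. After pooling and extraction in PBS with 0.5% NP-40 at 4°C, soluble protein from a 21,000xg, 90 min spin was quantified by TMTpro 16plex LC-MS/MS with channel sums equalised. Thermal stability is expressed against control samples, from duplicates, as a log2 fold change.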

[2] = compound: CC1=C(C=C(C=C1)NC(=O)C2=CC(=CC=C2)N(C)C)NC(=O)C3=CC=C(C=C3)O
How it was run: as §1

[3] = compound: CC1=CC=C(C=C1)SC2=C3C=C(SC3=CN=C2)C(=O)N
How it was run: as §1

[4] = compound: CC1=NC(=CC=C1)C2=C(N=C(N2)C(C)(C)C)C3=CC4=NC=CN=C4C=C3
How it was run: as §1

Nexturastat A = compound: CCCCN(Cc1ccc(C(=O)NO)cc1)C(=O)Nc1ccccc1 [Nexturastat A]
How it was run: as §1

vemurafenib = compound: CCCS(=O)(=O)Nc1ccc(F)c(C(=O)c2c[nH]c3ncc(-c4ccc(Cl)cc4)cc23)c1F [vemurafenib]
How it was run: as §1

[5] = compound: CCCS(=O)(=O)Nc1ccc(F)c(C(=O)c2c[nH]c3ncc(Cl)cc23)c1F
How it was run: as §1

givinostat = compound: CCN(CC)Cc1ccc2cc(COC(=O)Nc3ccc(C(=O)NO)cc3)ccc2c1 [givinostat]
How it was run: as §1

barasertib = compound: CCN(CCCOc1ccc2c(Nc3cc(CC(=O)Nc4cccc(F)c4)[nH]n3)ncnc2c1)CCOP(=O)(O)O [barasertib]
How it was run: as §1

[6] = compound: CC[C@@H]1C(=O)N(C)c2cnc(Nc3ccc(C(=O)NC4CCN(C)CC4)cc3OC)nc2N1C1CCCC1
How it was run: as §1

volasertib = compound: CC[C@@H]1C(=O)N(C)c2cnc(Nc3ccc(C(=O)N[C@H]4CC[C@H](N5CCN(CC6CC6)CC5)CC4)cc3OC)nc2N1C(C)C [volasertib]
How it was run: as §1

epoxomicin = compound: CC[C@H](C)[C@@H](C(=O)N[C@@H]([C@@H](C)O)C(=O)N[C@@H](CC(C)C)C(=O)[C@]1(CO1)C)NC(=O)[C@H]([C@@H](C)CC)N(C)C(=O)C [epoxomicin]
How it was run: as §1

[7] = compound: CCn1c(C(=O)N(C2CC2)C2CC2)cc2c3c(ncn3C)c(Nc3cc(C)n(C)n3)nc21
How it was run: as §1

[8] = compound: CN(C)CC(=O)Nc1ccc2[nH]c(=O)c3ccccc3c2c1
How it was run: as §1

rosiglitazone = compound: CN(CCOC1=CC=C(C=C1)C[C@H]2C(=O)NC(=O)S2)C3=CC=CC=N3 (racemic) [rosiglitazone]
How it was run: as §1

[9] = compound: CN1C2=C(C3=C1C(=O)N(N=C3)CC4=CC(=CC=C4)N)SC(=C2)S(=O)C
How it was run: as §1

[10] = compound: CCn1cc(-c2ccnc3[nH]c(-c4cccc(CN(C)C)c4)cc23)c(-c2ccc(NC(=O)N(C)C)cc2)n1
How it was run: as §1

[11] = compound: CN1CCC(CNc2ccc3ncc(-c4cccc(OC(F)(F)F)c4)n3n2)CC1
How it was run: as §1

[12] = compound: CC[C@H](C)N1C=C(C2=C(C=C(C=C21)C3=CN=C(C=C3)N4CCNCC4)C(=O)NCC5=C(C=C(NC5=O)C)C)C
How it was run: as §1

[13] = compound: CCCc1cc(C)[nH]c(=O)c1CNC(=O)c1cc(-c2ccnc(N3CCN(C)CC3)c2)cc2c1cnn2C(C)C
How it was run: as §1

Measured: log2 fold change

IPO8 (UniProt O15397)
inactive: [1] -0.105 | [2] 0.028 | [3] 0.01 | [4] -0.104 | Nexturastat A 0.173 | vemurafenib 0.01 | [5] 0.075 | givinostat 0.058 | barasertib 0.106 | [6] 0.069 | volasertib -0.186 | epoxomicin -0.098 | [7] -0.112 | [8] 0.072 | rosiglitazone -0.136 | [9] 0.291

ISL2 (UniProt Q96A47)
inactive: [4] -0.002 | barasertib -0.005 | [6] -0.018 | [10] 0.124 | rosiglitazone 0.284 | [11] 0.024

ITGB3BP isoform 5 (UniProt Q13352)
inactive: [2] -0.033 | givinostat -0.116 | [12] 0.039 | [7] 0.075

IDH3A isoform 2 (UniProt P50213)
inactive: [4] -0.083 | givinostat 0.175 | barasertib -0.012 | [12] -0.056

IFT27 (UniProt Q9BW83)
inactive: [3] -0.159 | [5] 0.029 | givinostat 0.056 | volasertib 0.191 | [7] -0.033 | [10] -0.19 | [9] -0.052 | [11] -0.074

ING4 (UniProt Q9UNL4)
inactive: Nexturastat A -0.169 | givinostat -0.33 | epoxomicin 0.215 | [7] 0.031 | [9] 0.054

IGFBP6 (UniProt P24592)
inactive: [2] 0.03 | vemurafenib 0.189 | [8] -0.186 | [9] 0.107

Six consecutive records already listed:
IPO8 (UniProt O15397)
inactive: [1] -0.105 | [2] 0.028 | [3] 0.01 | [4] -0.104 | Nexturastat A 0.173 | vemurafenib 0.01 | [5] 0.075 | givinostat 0.058 | barasertib 0.106 | [6] 0.069 | volasertib -0.186 | epoxomicin -0.098 | [7] -0.112 | [8] 0.072 | rosiglitazone -0.136 | [9] 0.291

ISL2 (UniProt Q96A47)
inactive: [4] -0.002 | barasertib -0.005 | [6] -0.018 | [10] 0.124 | rosiglitazone 0.284 | [11] 0.024

ITGB3BP isoform 5 (UniProt Q13352)
inactive: [2] -0.033 | givinostat -0.116 | [12] 0.039 | [7] 0.075

IDH3A isoform 2 (UniProt P50213)
inactive: [4] -0.083 | givinostat 0.175 | barasertib -0.012 | [12] -0.056

IFT27 (UniProt Q9BW83)
inactive: [3] -0.159 | [5] 0.029 | givinostat 0.056 | volasertib 0.191 | [7] -0.033 | [10] -0.19 | [9] -0.052 | [11] -0.074

ING4 (UniProt Q9UNL4)
inactive: Nexturastat A -0.169 | givinostat -0.33 | epoxomicin 0.215 | [7] 0.031 | [9] 0.054

(continued)

IKZF1 (UniProt R9R4D9)
inactive: [3] -0.116 | [4] 0.026 | [5] 0.033 | volasertib 0.085 | [10] -0.247 | [9] 0.229 | [11] 0.05

IPP (UniProt Q9Y573)
inactive: barasertib -0.139

ING5 (UniProt Q8WYH8)
inactive: [3] 0.058 | [4] -0.052 | [5] -0.011 | [13] -0.237 | givinostat 0.316
active: [6] -0.561 | volasertib -1.47

IQSEC2 (UniProt Q5JU85)
inactive: [3] 0.033 | [5] 0.055 | [13] 0.042 | [6] 0.01 | volasertib -0.208 | [12] -0.197 | [9] 0.222

ITPRID2 (UniProt P28290)
inactive: [2] -0.003 | [3] -0.103 | [4] -0.065 | Nexturastat A -0.188 | vemurafenib -0.125 | [5] -0.097 | givinostat 0.213 | [6] 0.01 | volasertib -0.373 | epoxomicin -0.109 | [8] -0.106

IMPA1 (UniProt E5RIP7)
inactive: barasertib -0.154 | rosiglitazone 0.011

IGHA2 (UniProt P01877)
inactive: [12] 1.73

ITIH1 (UniProt P19827)
inactive: [13] -0.169 | givinostat 0.125 | [6] 0.066 | [7] -0.184

IDUA (UniProt P35475)
inactive: [3] -0.033 | Nexturastat A 0.038 | [5] 0.056 | [13] -0.069 | volasertib -0.413 | epoxomicin -0.057 | [10] -0.053 | [11] -0.272

INTS12 (UniProt Q96CB8)
inactive: vemurafenib 0.138 | [8] -0.071 | [9] 0.152

IMPDH2 (UniProt H0Y4R1)
inactive: [2] 0.01 | [3] -0.069 | [4] -0.021 | Nexturastat A 0.062 | vemurafenib -0.044 | [5] 0.041 | [13] 0.02 | givinostat -0.148 | barasertib -0.085 | volasertib 0.214 | [12] -0.045 | epoxomicin 0.081 | [7] -0.08 | [10] 0.077 | [8] 0.016 | rosiglitazone -0.04 | [11] -0.014

ING3 (UniProt Q9NXR8)
inactive: [6] 0.022 | [10] -0.041 | [11] 0.221

IPMK (UniProt Q8NFU5)
inactive: [12] 0.112

ITGB1BP1 (UniProt O14713)
inactive: [2] -0.007 | Nexturastat A 0.003 | givinostat 0.073 | barasertib 0.067 | epoxomicin 0.006 | [7] -0.125 | rosiglitazone 0.097 | [9] -0.232

INCENP (UniProt Q9NQS7)
inactive: [2] 0.021 | [4] -0.136

IGF2 isoform 3 (UniProt P01344)
inactive: [4] 0.136 | vemurafenib 0.073 | givinostat -0.148 | [8] -0.218 | [9] 0.135
